For two molecules, binding results are on record in doi:10.1101/373209.

The target in this experiment is FLAG-TPL-2ΔNES (UniProt Q63562). Put plainly: co-IP.

Results are given in words; binding and its absence hold for the method and conditions named. Binding seen in cells or lysates may run through a third protein. Binding calls can cover weak binding; strength is not graded here. Tags and fused reporters may be left off the sequences shown.

For the molecule XP-p105 (from UniProt P19838 1-968), the binding result was “binds”.

B1: MYC-BCL-3 (protein, UniProt P20749 1-454)
chain: MPRCPAGAMDEGPVDLRTRPKAAGLPGAALPLRKRPLRAPSPEPAAPRGAAGLVVPLDPLRGGCDLPAVPGPPHGLARPEALYYPGALLPLYPTRAMGSPFPLVNLPTPLYPMMCPMEHPLSADIAMATRADEDGDTPLHIAVVQGNLPAVHRLVNLFQQGGRELDIYNNLRQTPLHLAVITTLPSVVRLLVTAGASPMALDRHGQTAAHLACEHRSPTCLRALLDSAAPGTLDLEARNYDGLTALHVAVNTECQETVQLLLERGADIDAVDIKSGRSPLIHAVENNSLSMVQLLLQHGANVNAQMYSGSSALHSASGRGLLPLVRTLVRSGADSSLKNCHNDTPLMVARSRRVIDILRGKATRPASTSQPDPSPDRSANTSPESSSRLSSNGLLSASPSSSPSQSPPRDPPGFPMAPPNFFLPSPSPPAFLPFAGVLRGPGRPVPPSPAPGGS
On to B1, for which the binding result was “binds”.
